The list shows a part of the results.
Each compound was assayed on T1, CTL2-GFP (C. trachomatis L2/434/Bu, GFP-expressing). Conditions: bulk GFP, single well; 28.5 h, 10 µM; inhibitor.
T1 construct: L2/434/Bu, GFP-expressing
Parameters: species or system HeLa; Intracellular C. trachomatis growth in HeLa cells, bulk GFP fluorescence relative to DMSO
For `Cc1nn(CCNC(=O)C2CC(=O)N(Cc3ccccn3)C2)c(C)c1Cl` (centres unmarked) [CBK307316], the “% of control remaining” value was 122.389%. For `O=C(Nc1cccc(C(F)(F)F)c1)Nc1cccc(S(=O)(=O)N2CCOCC2)c1` [CBK267043], the “% of control remaining” value was 38.7983%. In the case of `Cc1ccc(C(C)C(=O)N2CCC(C(=O)c3cccnc3)CC2)cc1` (centres unmarked) [CBK283516], the “% of control remaining” value was 134.728%. With `CC(C)c1n[nH]c(C2CN(Cc3nc4c(F)cccc4[nH]3)CCO2)n1` (centres unmarked) [CBK305225] the “% of control remaining” value was 104.522%. With `CC(C)c1nnc(NS(=O)(=O)c2ccc(N)cc2)s1` [CBK050163] the “% of control remaining” value was 35.8221%. `CN1CCCN(c2nccnc2-c2cccs2)CC1` [CBK088823] was tested, and the “% of control remaining” value was 109.863%. `O=c1oc(-c2ccco2)nn1Cc1ccc([N+](=O)[O-])cc1` [CBK295593] was tested, and the “% of control remaining” value was 135.404%. For `CC(NCCN1CCOCC1)=C1C(=O)c2ccccc2C1=O` [CBK262691], the “% of control remaining” value was 130.256%. `O=C(C[C@@H]1O[C@H](CNCc2cccc(Cl)c2)[C@@H](O)[C@H]1O)N1CCOCC1` [CBK288905] was tested, and the “% of control remaining” value was 135.955%. For `O=C(O)c1cccc(N2C(=O)CC(n3cnc4ccccc43)C2=O)c1` (centres unmarked) [CBK291145], the “% of control remaining” value was 145.435%. With `CCCC(=O)CCOC(=O)C1=C(C)OC2C1Nc1cc(F)c(F)cc1N2CC` (centres unmarked) [CBK022099] the “% of control remaining” value was 156.542%. With `O=C(c1cccs1)N1CCC(c2n[nH]c3ncccc23)CC1` [CBK284904] the “% of control remaining” value was 124.449%. With `CC(=O)Nc1ccc(-c2cncc(N3CCN(C(=O)c4ccco4)CC3)n2)cc1` [CBK066065] the “% of control remaining” value was 122.653%. In the case of `Cc1noc(C)c1C(=O)N1CCC(c2nc(C)n3ccsc23)CC1` [CBK285239], the “% of control remaining” value was 146.85%. For `O=C(NCc1ccc2c(c1)OCO2)[C@H]1CN2CCC1C[C@@H]2Cn1cc(-c2ccccn2)nn1` (some centres unmarked) [CBK289082], the “% of control remaining” value was 114.207%. For `O=C(O)c1ccc(-n2nnnc2Sc2nc([N+](=O)[O-])nn2Cc2ccccc2F)cc1` [CBK268498], the “% of control remaining” value was 158.174%. For `COc1ccc(OC)c(NC(=O)CN2CCC(C(N)=O)(N3CCCCC3)CC2)c1` [CBK268462], the “% of control remaining” value was 123.334%. For `C(=N\c1ccc(Cc2ccc(/N=C/c3cccnc3)cc2)cc1)/c1cccnc1` [CBK260884], the “% of control remaining” value was 118.435%. With `Cc1nc(C)c(C(=O)N2CC(C(=O)N3CCN(c4ccccc4)CC3)C2)s1` [CBK285666] the “% of control remaining” value was 110.823%. `CCOc1ccc(-c2ccnc(N3CCC(N(C)C)C3)n2)cc1C(=O)O` (centres unmarked) [CBK307241] was tested, and the “% of control remaining” value was 110.398%. `O=C1Cc2ccccc2C2(CCN(C(=O)c3cccc4cccc(C(=O)O)c34)CC2)N1` [CBK047313] was tested, and the “% of control remaining” value was 96.1536%. For `Cc1ccc(-n2c(SCC(=O)NC(C)Cc3ccccc3)nc3sc4c(c3c2=O)CC(C)(C)OC4)cc1` (centres unmarked) [CBK267714], the “% of control remaining” value was 110.62%. In the case of `COCCCOc1cncc(N2CCCC2)n1` [CBK115759], the “% of control remaining” value was 128.021%. For `O=C(Nc1ccc(Cl)cc1C(=O)NCCN1CCOCC1)c1ccc(Cl)cc1Cl` [CBK265749], the “% of control remaining” value was 197.978%. `O=C(CSc1nc2sc3c(c2c(=O)[nH]1)CCCC3)NCCN1CCOCC1` [CBK264064] was tested, and the “% of control remaining” value was 105.489%. For `OC(Cn1nnc2ccccc21)Cn1c(-c2ccccc2)c(-c2ccccc2)c2ccc3ccccc3c21` (centres unmarked) [CBK264054G], the “% of control remaining” value was 59.1575%. In the case of `CC(=O)Nc1ccc(S(=O)(=O)NNC(=O)c2cccc(Cl)c2)cc1` [CBK261694], the “% of control remaining” value was 108.293%. `Cc1nnc(Sc2nc3ccccc3nc2NC(C)C)s1` [CBK093731] was tested, and the “% of control remaining” value was 112.698%. For `Cc1cc(O)nc2sc(C(=O)c3ccccc3)c(N)c12` [CBK115334], the “% of control remaining” value was 114.312%. In the case of `COCCNC(=O)c1nnn(-c2ccc(Br)cc2)c1C` [CBK300524], the “% of control remaining” value was 177.851%. With `CC(C)(C)C(=O)NC(=S)Nc1ccc(Cc2ccncc2)cc1` [CBK269717] the “% of control remaining” value was 122.538%. For `COCC(=O)N1CCc2sccc2C1c1ccc(NC(=O)c2ccc(F)cc2)cc1` (centres unmarked) [CBK286435], the “% of control remaining” value was 90.3608%. With `N#CCCCN1CCCC2(C1)NCCc1c2[nH]c2cc(F)ccc12` (centres unmarked) [CBK039826] the “% of control remaining” value was 86.8064%. `CN(C)CCCC(=O)N1CCN(C(=O)c2ccco2)CC1` [CBK144445] was tested, and the “% of control remaining” value was 164.32%. In the case of `C[C@H](Nc1nc(-c2ccoc2)cnc1N)c1ccccc1` [CBK063707], the “% of control remaining” value was 177.46%. With `CCOC(=O)C(NC(=O)c1cn[nH]c1)c1cccc(C)c1C` (centres unmarked) [CBK304175] the “% of control remaining” value was 133.414%. For `CC1(C)C[C@H](NC(=O)c2ccccc2)[C@@]2(CCC(=O)NC3CC3)CC[C@](C)(O)C[C@@H]12` [CBK289045], the “% of control remaining” value was 139.773%. In the case of `CS(=O)(=O)c1ccc(CN2CCOC[C@H]2c2nc(-c3ccc(F)cc3)c[nH]2)cc1` [CBK289295], the “% of control remaining” value was 129.183%. With `Cc1ccc(Cc2cnc(NC(=O)NC3CCOCC3)s2)cc1Cl` [CBK304440] the “% of control remaining” value was 117.419%. In the case of `CC(=O)Nc1ccc2nc(NC(=O)c3ccc(C#N)cc3)sc2c1` [CBK287309], the “% of control remaining” value was 155.894%. For `COc1ccc(-c2nn(-c3ccccc3)cc2C(=O)Nc2ccc(C(=O)O)cc2)cc1` [CBK296121], the “% of control remaining” value was 116.146%. In the case of `O=C(CCn1c(C(F)(F)F)cc2cccnc21)NC1CCCC1` [CBK284864], the “% of control remaining” value was 123.105%. For `CC1(C)CC(=O)c2sc(NC(=O)C3COc4ccccc4O3)nc2C1` (centres unmarked) [CBK144104], the “% of control remaining” value was 109.202%. With `COc1ccc(C(=O)N[C@H]2C[C@H]3C(=O)Nc4ccc(-c5ccsc5)cc4C(=O)N3C2)cc1` [CBK289362] the “% of control remaining” value was 95.5104%. `CCN(Cc1ccccc1)C1CCN(Cc2cccc(OC)c2)CC1` [CBK264654G] was tested, and the “% of control remaining” value was 108.851%. In the case of `Cc1cc(N2CCC(O)CC2)nc(N)n1` [CBK167265], the “% of control remaining” value was 128.997%. In the case of `COc1ccc(/C=C/C(=O)NCc2ccc(S(N)(=O)=O)cc2)cc1OC` [CBK265483], the “% of control remaining” value was 133.662%. With `CCCc1n[nH]c(-c2cc(C(F)(F)F)ccc2F)c1C(=O)OCC` [CBK107231] the “% of control remaining” value was 101.606%. `CS(=O)(=O)CCC(C(=O)O)N1C(=O)c2ccc(Oc3ccc(Cl)cc3)cc2C1=O` (centres unmarked) [CBK266377] was tested, and the “% of control remaining” value was 186.237%. In the case of `COc1ccc(-n2cc(-c3ccccn3)nn2)cc1OC` [CBK113133], the “% of control remaining” value was 114.559%. With `Cc1ccccc1NC(=O)/C(=C\c1cccnc1)NC(=O)c1ccccc1` [CBK261632] the “% of control remaining” value was 125.351%. For `CCn1c(SCC(=O)Nc2ccc([N+](=O)[O-])cc2O)nnc1-c1ccccc1` [CBK268730], the “% of control remaining” value was 108.658%. In the case of `COc1ccc(CC(=O)Nc2cccc(-c3cn4ccc(C)cc4n3)c2)cc1OC` [CBK269148], the “% of control remaining” value was 163.002%. With `Cc1cc(S(=O)(=O)N(C)CCC#N)c(C)cc1Cl` [CBK043787] the “% of control remaining” value was 103.819%. In the case of `Cc1n[nH]c(C)c1C12CC3CC(CC(CC(=O)O)(C3)C1)C2` [CBK288241], the “% of control remaining” value was 132.682%. In the case of `CSC(C)C(=O)N(C)C1CCN(c2ncnc3ccccc23)CC1` (centres unmarked) [CBK305300], the “% of control remaining” value was 107.284%. With `O=C(c1cscn1)N1CCN(CCc2ccccc2)CC1` [CBK200230] the “% of control remaining” value was 127.365%. With `CC(=O)c1ccc(-c2cn3ccnc3c(N3CCN(C)CC3)n2)s1` [CBK037957] the “% of control remaining” value was 183.974%. `Cc1ccc(Nc2nc(Cn3nc(C(=O)O)c4ccccc4c3=O)cs2)cc1` [CBK296989] was tested, and the “% of control remaining” value was 158.015%. In the case of `Cc1ccnn1CCC(=O)NC1(c2ccc(F)cc2)CCCC1` [CBK283600], the “% of control remaining” value was 85.702%. For `COc1ccccc1NC(=O)C1CCN(C(=O)OC(C)(C)C)CC1` [CBK296746], the “% of control remaining” value was 144.235%. For `Cc1ccn2c(CN3CCCC(Cn4ccnc4C)C3)c(C)nc2c1` (centres unmarked) [CBK281964], the “% of control remaining” value was 110.571%. `CC(C)(C)c1ccc(C(=O)N2CCC(C(=O)O)CC2)cc1` [CBK286949] was tested, and the “% of control remaining” value was 137.611%. For `Cc1cc(C)c(NC(=O)N(CCCO)Cc2ccncc2)c(Cl)c1` [CBK304406], the “% of control remaining” value was 110.416%. In the case of `CN(C)CC(=O)N1CCN(c2ccc(C(=O)c3ccccc3)cc2[N+](=O)[O-])CC1` [CBK296699], the “% of control remaining” value was 142.593%. `Cc1nn(-c2ccc3nnc(C)n3n2)c2c1C(c1ccccc1F)CC(=O)N2` (centres unmarked) [CBK287898] was tested, and the “% of control remaining” value was 106.448%. In the case of `Cc1ccc(C(=O)CN2CCCC3(C2)NCCc2c3[nH]c3c(C)cccc23)cc1` (centres unmarked) [CBK039546], the “% of control remaining” value was 105.19%. `COc1ccccc1CN(Cc1cccnc1)C(=O)CCn1cnnn1` [CBK307106] was tested, and the “% of control remaining” value was 116.176%. `O=C(CN1CCCCCC1)N/N=C/c1ccccc1Cl` [CBK261589] was tested, and the “% of control remaining” value was 120.622%. With `CCN1CCC2(C/C=C/CCOc3ccccc3C(=O)NCCCNC2=O)CC1` [CBK292060] the “% of control remaining” value was 118.879%. With `C[C@@H](c1ccccc1)n1c(=O)[nH]c2ncc(-c3ccc(N(C)C)cc3)nc21` [CBK064352] the “% of control remaining” value was 127.674%. In the case of `CCOC(=O)c1nc(C2CCN(c3cccc(F)c3C#N)CC2)n[nH]1` [CBK304711], the “% of control remaining” value was 106.566%. For `O=C(Nc1cc(Cl)nc(Cl)c1)N(Cc1ccc2ccccc2c1)CC1CCNCC1` [CBK049773], the “% of control remaining” value was 38.5502%. For `N=C(N)NCC(=O)N(CCCc1cc(C(F)(F)F)cc(C(F)(F)F)c1)c1ccc2c(c1)OCO2` [CBK000702T], the “% of control remaining” value was 111.059%. In the case of `CCN(CC)C(=O)NC(C)c1cccc(S(=O)(=O)NC)c1` (centres unmarked) [CBK305134], the “% of control remaining” value was 132.575%. For `O=C(CC(CN1CCCCC1)C(=O)O)Nc1cccc(O)c1` (centres unmarked) [CBK286788], the “% of control remaining” value was 106.972%. In the case of `CC(=O)c1c(C)oc(C)c1C(C)=O` [CBK012535], the “% of control remaining” value was 102.832%.

Source: PMC12040169 (PLOS Biology, 2025)
